According to the supplement of paper PMC12823440, “Inhibitors supercharge kinase turnover through native proteolytic circuits” (Nature, 2025):
This is one part of the list. The calls rarely recur for the same compound in another form.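 Kinases were expressed as nanoluciferase fusions in K562 cells and luminescence was read every 4 h between 2 and 18 h as percent of control, DMSO set to 100% and a positive control to 0%. A time point counts as decreased when the signal drops significantly (2 sigma). The hit call is the authors' own, does not follow from the count of time points alone, and its rule is not shown.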

Protein sequences, listed by entry. Tags and fused reporters are not part of them. Lines headed by an entry give the natural chain unless they say otherwise; changes in a name come on top.
UniProt Q15303, whole entry R711C: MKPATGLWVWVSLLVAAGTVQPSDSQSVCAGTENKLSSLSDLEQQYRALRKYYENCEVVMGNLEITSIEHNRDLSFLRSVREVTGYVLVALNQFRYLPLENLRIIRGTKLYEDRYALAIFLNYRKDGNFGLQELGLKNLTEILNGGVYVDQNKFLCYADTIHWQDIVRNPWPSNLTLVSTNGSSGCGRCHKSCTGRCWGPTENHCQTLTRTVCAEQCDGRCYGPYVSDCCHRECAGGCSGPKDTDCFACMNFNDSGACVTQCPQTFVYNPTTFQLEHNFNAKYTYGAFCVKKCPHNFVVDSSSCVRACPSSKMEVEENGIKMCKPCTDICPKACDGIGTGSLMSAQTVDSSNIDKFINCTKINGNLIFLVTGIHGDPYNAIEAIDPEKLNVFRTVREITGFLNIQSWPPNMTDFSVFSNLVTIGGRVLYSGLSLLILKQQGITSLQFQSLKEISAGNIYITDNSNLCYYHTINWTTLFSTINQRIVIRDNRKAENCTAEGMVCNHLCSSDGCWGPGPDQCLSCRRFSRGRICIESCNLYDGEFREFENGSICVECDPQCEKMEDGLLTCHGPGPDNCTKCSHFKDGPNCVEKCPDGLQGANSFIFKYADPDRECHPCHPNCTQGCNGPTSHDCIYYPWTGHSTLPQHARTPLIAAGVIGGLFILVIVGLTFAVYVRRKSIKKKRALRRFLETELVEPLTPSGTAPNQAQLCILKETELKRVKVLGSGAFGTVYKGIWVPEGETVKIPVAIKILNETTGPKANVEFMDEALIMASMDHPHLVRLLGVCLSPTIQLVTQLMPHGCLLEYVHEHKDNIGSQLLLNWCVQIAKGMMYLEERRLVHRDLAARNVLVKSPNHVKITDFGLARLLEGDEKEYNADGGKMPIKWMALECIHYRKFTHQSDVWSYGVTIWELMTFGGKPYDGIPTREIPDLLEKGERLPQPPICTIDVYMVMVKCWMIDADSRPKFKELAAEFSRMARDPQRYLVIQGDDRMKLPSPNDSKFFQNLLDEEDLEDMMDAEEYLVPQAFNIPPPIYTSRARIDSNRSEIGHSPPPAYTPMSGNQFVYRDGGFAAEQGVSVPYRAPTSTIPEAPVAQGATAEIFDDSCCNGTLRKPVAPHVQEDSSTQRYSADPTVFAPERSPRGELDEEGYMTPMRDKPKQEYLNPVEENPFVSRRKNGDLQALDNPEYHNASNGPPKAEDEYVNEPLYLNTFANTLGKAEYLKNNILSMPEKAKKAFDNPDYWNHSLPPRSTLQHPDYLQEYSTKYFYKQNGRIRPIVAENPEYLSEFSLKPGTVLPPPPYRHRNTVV
UniProt P11362, whole entry, looked up: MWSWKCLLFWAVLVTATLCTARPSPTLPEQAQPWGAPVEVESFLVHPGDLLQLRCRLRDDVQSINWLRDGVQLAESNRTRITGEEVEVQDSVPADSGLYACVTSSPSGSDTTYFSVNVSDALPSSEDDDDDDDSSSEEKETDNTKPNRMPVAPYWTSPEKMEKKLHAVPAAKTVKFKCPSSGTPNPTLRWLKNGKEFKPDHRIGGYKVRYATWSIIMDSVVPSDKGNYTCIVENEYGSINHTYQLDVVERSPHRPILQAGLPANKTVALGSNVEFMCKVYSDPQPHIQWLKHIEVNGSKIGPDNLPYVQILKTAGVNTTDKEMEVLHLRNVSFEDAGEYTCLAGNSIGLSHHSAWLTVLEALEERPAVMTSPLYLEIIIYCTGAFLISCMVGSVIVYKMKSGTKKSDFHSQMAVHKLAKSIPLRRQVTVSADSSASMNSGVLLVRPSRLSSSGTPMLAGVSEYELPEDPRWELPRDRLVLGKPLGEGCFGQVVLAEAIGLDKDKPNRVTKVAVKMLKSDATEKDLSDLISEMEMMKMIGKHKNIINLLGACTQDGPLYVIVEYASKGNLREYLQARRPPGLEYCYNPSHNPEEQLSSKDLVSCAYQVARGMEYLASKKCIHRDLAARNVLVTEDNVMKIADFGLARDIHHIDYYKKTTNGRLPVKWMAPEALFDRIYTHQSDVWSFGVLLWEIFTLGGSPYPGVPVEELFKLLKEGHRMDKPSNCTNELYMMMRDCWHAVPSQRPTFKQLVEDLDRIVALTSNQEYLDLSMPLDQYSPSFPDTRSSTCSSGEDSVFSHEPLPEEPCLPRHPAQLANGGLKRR
UniProt P21802, whole entry, looked up: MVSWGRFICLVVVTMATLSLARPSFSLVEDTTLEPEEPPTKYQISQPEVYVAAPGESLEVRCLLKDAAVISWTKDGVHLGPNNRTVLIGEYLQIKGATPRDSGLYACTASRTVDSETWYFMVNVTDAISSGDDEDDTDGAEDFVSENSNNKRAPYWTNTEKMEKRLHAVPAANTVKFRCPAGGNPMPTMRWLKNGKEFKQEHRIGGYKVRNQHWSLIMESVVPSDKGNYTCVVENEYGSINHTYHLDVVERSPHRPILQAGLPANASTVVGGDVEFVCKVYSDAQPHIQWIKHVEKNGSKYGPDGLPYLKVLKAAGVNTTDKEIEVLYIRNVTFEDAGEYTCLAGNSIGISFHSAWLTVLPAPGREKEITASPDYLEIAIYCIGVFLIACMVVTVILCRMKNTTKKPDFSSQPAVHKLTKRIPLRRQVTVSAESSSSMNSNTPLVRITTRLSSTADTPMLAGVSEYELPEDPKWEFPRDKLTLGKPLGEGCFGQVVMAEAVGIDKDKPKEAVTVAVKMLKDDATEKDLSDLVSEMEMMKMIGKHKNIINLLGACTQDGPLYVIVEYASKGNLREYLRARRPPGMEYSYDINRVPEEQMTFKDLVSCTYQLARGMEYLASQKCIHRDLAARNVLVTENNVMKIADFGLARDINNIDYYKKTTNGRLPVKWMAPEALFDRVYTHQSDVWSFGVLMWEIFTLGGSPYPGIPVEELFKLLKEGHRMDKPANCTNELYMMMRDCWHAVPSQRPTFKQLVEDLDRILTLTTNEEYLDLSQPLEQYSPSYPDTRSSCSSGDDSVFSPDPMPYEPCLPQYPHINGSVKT
UniProt P22607, whole entry, looked up: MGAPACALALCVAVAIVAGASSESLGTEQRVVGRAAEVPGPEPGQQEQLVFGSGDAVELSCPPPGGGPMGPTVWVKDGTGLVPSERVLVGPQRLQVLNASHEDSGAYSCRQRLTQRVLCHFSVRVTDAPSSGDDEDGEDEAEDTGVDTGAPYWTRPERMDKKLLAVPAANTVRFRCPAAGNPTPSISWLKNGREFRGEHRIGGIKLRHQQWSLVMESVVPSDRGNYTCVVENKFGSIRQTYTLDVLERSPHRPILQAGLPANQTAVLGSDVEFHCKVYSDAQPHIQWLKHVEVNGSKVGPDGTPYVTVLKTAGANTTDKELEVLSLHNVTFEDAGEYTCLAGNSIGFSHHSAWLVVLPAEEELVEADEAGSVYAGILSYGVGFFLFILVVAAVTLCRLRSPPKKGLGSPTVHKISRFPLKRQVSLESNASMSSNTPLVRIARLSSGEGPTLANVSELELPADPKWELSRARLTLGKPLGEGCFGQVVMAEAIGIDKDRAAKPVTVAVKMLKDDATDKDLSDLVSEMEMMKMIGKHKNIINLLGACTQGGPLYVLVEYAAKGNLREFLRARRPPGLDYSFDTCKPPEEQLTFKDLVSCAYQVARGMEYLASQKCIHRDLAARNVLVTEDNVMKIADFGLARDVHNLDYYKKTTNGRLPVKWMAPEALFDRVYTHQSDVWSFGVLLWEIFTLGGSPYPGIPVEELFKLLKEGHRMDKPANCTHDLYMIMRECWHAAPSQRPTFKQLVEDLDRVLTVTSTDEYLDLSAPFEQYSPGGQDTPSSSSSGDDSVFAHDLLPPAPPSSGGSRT
UniProt P06241, whole entry, looked up: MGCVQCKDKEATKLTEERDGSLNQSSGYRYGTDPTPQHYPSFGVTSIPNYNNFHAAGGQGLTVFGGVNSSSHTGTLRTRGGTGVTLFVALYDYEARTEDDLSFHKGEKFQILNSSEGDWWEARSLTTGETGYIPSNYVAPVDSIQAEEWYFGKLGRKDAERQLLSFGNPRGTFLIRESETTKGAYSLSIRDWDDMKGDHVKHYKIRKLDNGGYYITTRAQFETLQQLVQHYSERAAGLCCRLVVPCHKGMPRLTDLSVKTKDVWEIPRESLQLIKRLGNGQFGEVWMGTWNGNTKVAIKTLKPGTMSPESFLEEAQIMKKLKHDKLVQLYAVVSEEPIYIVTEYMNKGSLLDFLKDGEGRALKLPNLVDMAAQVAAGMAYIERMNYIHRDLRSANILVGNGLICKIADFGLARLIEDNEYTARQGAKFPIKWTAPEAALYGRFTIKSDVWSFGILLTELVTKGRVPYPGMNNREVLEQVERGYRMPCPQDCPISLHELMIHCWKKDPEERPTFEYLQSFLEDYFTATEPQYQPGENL
UniProt P49840: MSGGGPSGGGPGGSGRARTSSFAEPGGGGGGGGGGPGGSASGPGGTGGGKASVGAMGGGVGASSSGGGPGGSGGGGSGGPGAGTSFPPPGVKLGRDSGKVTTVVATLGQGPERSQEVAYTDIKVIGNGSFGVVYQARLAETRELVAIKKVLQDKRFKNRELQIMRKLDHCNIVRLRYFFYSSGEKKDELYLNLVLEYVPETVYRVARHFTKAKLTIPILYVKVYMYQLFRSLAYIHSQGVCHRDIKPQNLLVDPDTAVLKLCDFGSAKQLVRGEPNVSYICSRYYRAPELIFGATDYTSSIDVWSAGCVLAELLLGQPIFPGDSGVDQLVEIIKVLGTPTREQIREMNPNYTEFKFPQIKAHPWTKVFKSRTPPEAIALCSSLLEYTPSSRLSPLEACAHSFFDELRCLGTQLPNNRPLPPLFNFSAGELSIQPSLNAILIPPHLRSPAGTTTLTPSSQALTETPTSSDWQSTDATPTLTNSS
UniProt P14616: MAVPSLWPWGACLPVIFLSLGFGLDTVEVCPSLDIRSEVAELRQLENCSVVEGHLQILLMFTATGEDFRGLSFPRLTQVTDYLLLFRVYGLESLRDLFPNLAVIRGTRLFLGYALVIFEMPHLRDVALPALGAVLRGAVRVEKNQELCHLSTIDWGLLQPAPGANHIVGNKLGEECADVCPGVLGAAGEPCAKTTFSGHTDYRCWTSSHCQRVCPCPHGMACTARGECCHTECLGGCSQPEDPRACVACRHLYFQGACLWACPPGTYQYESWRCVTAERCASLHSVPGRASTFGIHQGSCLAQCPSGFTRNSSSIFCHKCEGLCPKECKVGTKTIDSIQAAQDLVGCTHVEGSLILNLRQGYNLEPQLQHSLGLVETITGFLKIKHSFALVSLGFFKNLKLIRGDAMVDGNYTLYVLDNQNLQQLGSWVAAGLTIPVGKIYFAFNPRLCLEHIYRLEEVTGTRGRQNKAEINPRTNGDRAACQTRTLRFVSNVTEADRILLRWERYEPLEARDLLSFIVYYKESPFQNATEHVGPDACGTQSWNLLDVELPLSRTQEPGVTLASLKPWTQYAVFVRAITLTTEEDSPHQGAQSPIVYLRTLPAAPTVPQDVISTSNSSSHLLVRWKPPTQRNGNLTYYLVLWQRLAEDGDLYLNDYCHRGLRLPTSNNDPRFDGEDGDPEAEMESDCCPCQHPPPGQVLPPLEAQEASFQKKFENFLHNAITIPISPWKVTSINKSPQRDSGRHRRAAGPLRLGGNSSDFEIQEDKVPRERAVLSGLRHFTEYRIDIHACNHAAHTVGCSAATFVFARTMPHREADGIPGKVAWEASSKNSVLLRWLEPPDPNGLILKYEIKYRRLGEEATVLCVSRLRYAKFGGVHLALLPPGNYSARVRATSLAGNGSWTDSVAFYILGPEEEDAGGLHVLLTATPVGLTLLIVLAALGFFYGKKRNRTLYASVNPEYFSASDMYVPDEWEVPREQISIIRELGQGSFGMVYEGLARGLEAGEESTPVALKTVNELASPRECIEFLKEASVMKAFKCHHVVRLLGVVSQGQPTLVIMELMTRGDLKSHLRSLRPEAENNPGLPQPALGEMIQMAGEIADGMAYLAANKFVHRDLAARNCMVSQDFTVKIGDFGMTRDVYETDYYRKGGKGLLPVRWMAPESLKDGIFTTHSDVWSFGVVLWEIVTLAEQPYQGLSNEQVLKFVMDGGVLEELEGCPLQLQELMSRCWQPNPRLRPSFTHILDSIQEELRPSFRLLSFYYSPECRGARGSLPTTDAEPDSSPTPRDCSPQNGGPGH

How the values were obtained:
Assay in all cases: kinase-Nluc reporter destabilization hit call (1 = scored as downregulated) (binary); higher = compound decreases kinase abundance
Settings in all cases: K562; 2-18 h
[1] = biological target: EGFR (UniProt P00533)
[2] = biological target: EGFR_G719S (UniProt P00533)
[3] = biological target: EGFR_G719S_T790M (UniProt P00533)
[4] = biological target: EGFR_L718V (UniProt P00533)
[5] = biological target: EGFR_L858R (UniProt P00533)
[6] = biological target: EGFR_L861Q (UniProt P00533)
[7] = biological target: EGFR_T790M (UniProt P00533)
[8] = biological target: EPHA2 (UniProt P29317)
[9] = biological target: ERBB3 (UniProt P21860)
[10] = biological target: ERBB4_R711C (clone: ERBB4_mut) (UniProt Q15303)
[11] = biological target: ERN1 (UniProt O75460)
[12] = biological target: FGFR1 (UniProt P11362)
[13] = biological target: FGFR2 (UniProt P21802)
[14] = biological target: FGFR3 (UniProt P22607)
[15] = biological target: FGR (UniProt P09769)
[16] = biological target: FLT3 (UniProt P36888)
[17] = biological target: FYN (UniProt P06241)
[18] = biological target: GSK3A (UniProt P49840)
[19] = biological target: HER2 (UniProt P04626)
[20] = biological target: INSRR (UniProt P14616)

Measured: kinase-Nluc reporter destabilization hit call

O=C(/C=C/c1ccc(O[C@@H]2O[C@H](CO)[C@@H](O)[C@H](O)[C@H]2O[C@@H]2OC[C@](O)(CO)[C@H]2O)cc1)c1ccc(O)cc1O [Isoliquiritin apioside] (10 µM)
inactive: [1] 0 | [2] 0 | [3] 0 | [4] 0 | [5] 0 | [6] 0 | [7] 0 | [8] 0 | [9] 0 | [10] 0 | [11] 0 | [12] 0 | [13] 0 | [14] 0 | [15] 0 | [16] 0 | [17] 0 | [18] 0 | [19] 0 | [20] 0

CCN1CCN(Cc2ccc(Nc3ncc(F)c(-c4cc(F)c5nc(CO)n(C(C)C)c5c4)n3)nc2)CC1 [Abemaciclib metabolite M20] (2 µM)
inactive: [1] 0 | [2] 0 | [3] 0 | [4] 0 | [5] 0 | [6] 0 | [7] 0 | [8] 0 | [9] 0 | [10] 0 | [11] 0 | [12] 0 | [13] 0 | [14] 0 | [15] 0 | [16] 0 | [17] 0 | [18] 0 | [19] 0 | [20] 0

CNC(=O)Nc1ccc(-c2cc(-c3ccnc(Nc4ccc(C)c(S(=O)(=O)N(C)C)c4)n3)ccn2)cc1 [hSMG-1 inhibitor 11e] (2.5 µM)
inactive: [1] 0 | [2] 0 | [3] 0 | [4] 0 | [5] 0 | [6] 0 | [7] 0 | [8] 0 | [9] 0 | [10] 0 | [11] 0 | [12] 0 | [13] 0 | [14] 0 | [15] 0 | [16] 0 | [17] 0 | [18] 0 | [19] 0 | [20] 0

Nc1ncc(-c2cccc(N3CCNCC3)c2)cc1C(=O)Nc1ccncc1 [PKC-iota inhibitor 1] (10 µM)
inactive: [1] 0 | [2] 0 | [3] 0 | [4] 0 | [5] 0 | [6] 0 | [7] 0 | [8] 0 | [9] 0 | [10] 0 | [11] 0 | [12] 0 | [13] 0 | [14] 0 | [15] 0 | [16] 0 | [17] 0 | [18] 0 | [19] 0 | [20] 0

COc1cc([N+](=O)[O-])ccc1S(=O)(=O)N1C[C@@H](CN2CCN(c3ccccn3)CC2)[C@H](c2cccc(F)c2)C1 (relative stereo) (10 µM)
inactive: [1] 0 | [2] 0 | [3] 0 | [4] 0 | [5] 0 | [6] 0 | [7] 0 | [8] 0 | [9] 0 | [10] 0 | [11] 0 | [12] 0 | [13] 0 | [14] 0 | [15] 0 | [16] 0 | [17] 0 | [18] 0 | [19] 0 | [20] 0

COc1cc2ncn(-c3cc(OCc4ccccc4S(C)(=O)=O)c(C#N)s3)c2cc1OC (10 µM)
inactive: [1] 0 | [2] 0 | [3] 0 | [4] 0 | [5] 0 | [6] 0 | [7] 0 | [8] 0 | [9] 0 | [10] 0 | [11] 0 | [12] 0 | [13] 0 | [14] 0 | [15] 0 | [16] 0 | [17] 0 | [18] 0 | [19] 0 | [20] 0

N#Cc1ccc2ncnc(NC3CCC(N4CCOCC4)CC3)c2c1 (stereo not given) (10 µM)
inactive: [1] 0 | [2] 0 | [3] 0 | [4] 0 | [5] 0 | [6] 0 | [7] 0 | [8] 0 | [9] 0 | [10] 0 | [11] 0 | [12] 0 | [13] 0 | [14] 0 | [15] 0 | [16] 0 | [17] 0 | [18] 0 | [19] 0 | [20] 0

C[C@@H]1C(=O)O[C@H](C)[C@H]1C[C@@H](O)[C@](C)(O)[C@H]1CC[C@@]2(O)C3=CC(=O)[C@@H]4C[C@@H](O)[C@@H](O)C[C@]4(C)[C@H]3CC[C@]12C [Cyasterone] (10 µM)
inactive: [1] 0 | [2] 0 | [3] 0 | [4] 0 | [5] 0 | [6] 0 | [7] 0 | [8] 0 | [9] 0 | [10] 0 | [11] 0 | [12] 0 | [13] 0 | [14] 0 | [15] 0 | [16] 0 | [17] 0 | [18] 0 | [19] 0 | [20] 0

O=C1NC(=O)/C(=C/c2ccc3c(c2)OC(F)(F)O3)S1 (10 µM)
inactive: [1] 0 | [2] 0 | [3] 0 | [4] 0 | [5] 0 | [6] 0 | [7] 0 | [8] 0 | [9] 0 | [10] 0 | [11] 0 | [12] 0 | [13] 0 | [14] 0 | [15] 0 | [16] 0 | [17] 0 | [18] 0 | [19] 0 | [20] 0

Cc1ccc(S(=O)(=O)/C=C/C#N)cc1 (10 µM)
inactive: [1] 0 | [2] 0 | [3] 0 | [4] 0 | [5] 0 | [6] 0 | [7] 0 | [8] 0 | [9] 0 | [10] 0 | [11] 0 | [12] 0 | [13] 0 | [14] 0 | [15] 0 | [16] 0 | [17] 0 | [18] 0 | [19] 0 | [20] 0

2 entries drawn at random from those above:
COc1cc([N+](=O)[O-])ccc1S(=O)(=O)N1C[C@@H](CN2CCN(c3ccccn3)CC2)[C@H](c2cccc(F)c2)C1 (relative stereo) (10 µM)
inactive: [1] 0 | [2] 0 | [3] 0 | [4] 0 | [5] 0 | [6] 0 | [7] 0 | [8] 0 | [9] 0 | [10] 0 | [11] 0 | [12] 0 | [13] 0 | [14] 0 | [15] 0 | [16] 0 | [17] 0 | [18] 0 | [19] 0 | [20] 0

N#Cc1ccc2ncnc(NC3CCC(N4CCOCC4)CC3)c2c1 (stereo not given) (10 µM)
inactive: [1] 0 | [2] 0 | [3] 0 | [4] 0 | [5] 0 | [6] 0 | [7] 0 | [8] 0 | [9] 0 | [10] 0 | [11] 0 | [12] 0 | [13] 0 | [14] 0 | [15] 0 | [16] 0 | [17] 0 | [18] 0 | [19] 0 | [20] 0

Following part

CC(=O)N1CCN(c2cc(-c3cc(C(F)(F)F)c4c(N)ncnn34)ccc2C#N)C(=O)C1(C)C (10 µM)
inactive: [1] 0 | [2] 0 | [3] 0 | [4] 0 | [5] 0 | [6] 0 | [7] 0 | [8] 0 | [9] 0 | [10] 0 | [11] 0 | [12] 0 | [13] 0 | [14] 0 | [15] 0 | [16] 0 | [17] 0 | [18] 0 | [19] 0 | [20] 0

Fc1ccc(-c2nc(-c3ccccc3F)[nH]c2-c2ccncc2)cc1 (2.5 µM)
inactive: [1] 0 | [2] 0 | [3] 0 | [4] 0 | [5] 0 | [6] 0 | [7] 0 | [8] 0 | [9] 0 | [10] 0 | [11] 0 | [12] 0 | [13] 0 | [14] 0 | [15] 0 | [16] 0 | [17] 0 | [18] 0 | [19] 0 | [20] 0

CCn1c(=O)c(-c2ccc(-c3cncs3)cc2Cl)cc2cnc(Nc3ccc(N4CCN(C)CC4)cc3)nc21 (2.5 µM)
inactive: [1] 0 | [2] 0 | [3] 0 | [4] 0 | [5] 0 | [6] 0 | [7] 0 | [8] 0 | [9] 0 | [10] 0 | [11] 0 | [12] 0 | [13] 0 | [14] 0 | [15] 0 | [16] 0 | [17] 0 | [18] 0 | [19] 0 | [20] 0

CC1=C2C(=O)O[C@@H](c3ccoc3)[C@]2(C)CCC1 [Fraxinellone] (10 µM)
inactive: [1] 0 | [2] 0 | [3] 0 | [4] 0 | [5] 0 | [6] 0 | [7] 0 | [8] 0 | [9] 0 | [10] 0 | [11] 0 | [12] 0 | [13] 0 | [14] 0 | [15] 0 | [16] 0 | [17] 0 | [18] 0 | [19] 0 | [20] 0

CCn1c(-c2nonc2N)nc2cnc(Oc3cccc(NC(=O)c4ccc(OCCN5CCOCC5)cc4)c3)cc21 (10 µM)
inactive: [1] 0 | [2] 0 | [3] 0 | [4] 0 | [5] 0 | [6] 0 | [7] 0 | [8] 0 | [9] 0 | [10] 0 | [11] 0 | [12] 0 | [13] 0 | [14] 0 | [15] 0 | [16] 0 | [17] 0 | [18] 0 | [19] 0 | [20] 0

Cc1cc(Nc2cc(Cl)nc(Oc3ccc([N+](=O)[O-])cc3)n2)n[nH]1 [Autophinib] (2.5 µM)
inactive: [1] 0 | [2] 0 | [3] 0 | [4] 0 | [5] 0 | [6] 0 | [7] 0 | [8] 0 | [9] 0 | [10] 0 | [11] 0 | [12] 0 | [13] 0 | [14] 0 | [15] 0 | [16] 0 | [17] 0 | [18] 0 | [19] 0 | [20] 0

CS(=O)(=O)c1ccc(-c2noc(C(F)(F)F)c2-c2ccccc2)cc1 (10 µM)
inactive: [1] 0 | [2] 0 | [3] 0 | [4] 0 | [5] 0 | [6] 0 | [7] 0 | [8] 0 | [9] 0 | [10] 0 | [11] 0 | [12] 0 | [13] 0 | [14] 0 | [15] 0 | [16] 0 | [17] 0 | [18] 0 | [19] 0 | [20] 0

COc1cc(N2CCC(N3CCN(C)CC3)CC2)ccc1Nc1ncc(Cl)c(Nc2ccccc2P(C)(C)=O)n1 [Brigatinib] (2 µM)
inactive: [1] 0 | [2] 0 | [3] 0 | [4] 0 | [5] 0 | [6] 0 | [7] 0 | [8] 0 | [9] 0 | [10] 0 | [11] 0 | [12] 0 | [13] 0 | [14] 0 | [15] 0 | [16] 0 | [17] 0 | [18] 0 | [19] 0 | [20] 0
